Reference: PMC2292753
Results are given in words; binding and its absence hold for the method and conditions named. Some entries that bind do so weakly or less than the wild type.

How the values were obtained:
[1] = target: T1, Rad22 (the S. pombe Rad52 homolog) (S. pombe) (UniProt P36592); assay: co-IP; immunoprecipitation assay in the absence of an adenine nucleotide; unpublished data; pairs Rhp51-Rad22 and Rad22-RPA; both purified
T1 sequence: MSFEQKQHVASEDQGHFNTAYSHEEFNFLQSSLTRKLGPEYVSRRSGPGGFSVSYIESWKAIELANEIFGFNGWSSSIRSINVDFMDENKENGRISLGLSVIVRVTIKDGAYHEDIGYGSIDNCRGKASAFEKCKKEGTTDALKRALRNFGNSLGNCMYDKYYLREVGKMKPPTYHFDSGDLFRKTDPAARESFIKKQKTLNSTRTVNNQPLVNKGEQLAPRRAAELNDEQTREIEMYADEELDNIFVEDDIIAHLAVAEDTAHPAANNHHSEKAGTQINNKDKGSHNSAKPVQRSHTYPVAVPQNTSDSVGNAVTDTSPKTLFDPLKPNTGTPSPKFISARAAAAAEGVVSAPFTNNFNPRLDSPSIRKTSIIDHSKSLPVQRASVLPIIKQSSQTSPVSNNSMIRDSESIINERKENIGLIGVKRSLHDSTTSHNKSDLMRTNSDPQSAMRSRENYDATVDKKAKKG

[2] = target: T1, Rad22 (the S. pombe Rad52 homolog) (S. pombe); assay: co-IP; coimmunoprecipitation in vitro of the ternary complex RPA-Rad22-Rhp51, formed in solution in the absence of ATP; unpublished data; both purified
[3] = target: T1, Rad22 (the S. pombe Rad52 homolog) (S. pombe); assay: pull-down; css beads mixed with 5 uM Rhp51 and Rad22 (0.1 or 0.25 uM) at 37 °C for 5 min, then RPA (1 uM) added for 5 min; ATP; bead-bound proteins analysed by SDS-PAGE; both purified

Measured: binding

B1: Rhp51 recombinase (the S. pombe Rad51 homolog) (enzyme, UniProt P36601 1-365)
chain: MADTEVEMQVSAADTNNNENGQAQSNYEYDVNVQDEEDEAAAGPMPLQMLEGNGITASDIKKIHEAGYYTVESIAYTPKRQLLLIKGISEAKADKLLGEASKLVPMGFTTATEYHIRRSELITITTGSKQLDTLLQGGVETGSITELFGEFRTGKSQICHTLAVTCQLPIDMGGGEGKCLYIDTEGTFRPVRLLAVADRYGLNGEEVLDNVAYARAYNADHQLELLQQAANMMSESRFSLLVVDSCTALYRTDFSGRGELSARQMHLARFMRTLQRLADEFGIAVVITNQVVAQVDGISFNPDPKKPIGGNILAHSSTTRLSLRKGRGEQRICKIYDSPCLPESEAIFAINSDGVGDPKEIIAPV
binds: [1] | [2] | [3]
